Measured data: PubChem BioAssay AID652243 (Drosophila RNAi Screening Center, 2013)
Screen: 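Knock-downs that decrease or increase androgen receptor reporter signal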 (primary screen). System: Drosophila S2R+ cells. Knock-down reagent: long dsRNA against Drosophila genes. Duration: 72 h (48 h, then 24 h hormone). Conditions: synthetic androgen R1881 at 10 nM for 24 h. Detection: 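Per-well raw luminescence of the androgen-driven firefly reporter and of the Renilla control, two replicates each, without normalisation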. Reading the numbers: firefly reporter light: higher = more light from androgen-responsive reporter; Renilla control light: higher = more constitutive control signal (cell number, transfection). Rule for the call: 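Hit when the log firefly-to-Renilla ratio dropped or increased by a fixed fold versus the mean of GFP or LacZ controls across duplicate plates; lowering cut given as 1.5 and as 3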. Calls: active = hit: reporter lowered or raised; inactive = no hit.
In all, the deposit lists about 24,000 reagents; shown is an unselected part of those that have a named target and a result. Over the whole deposit, 246 (1%) are marked active. 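Plates not normalised; calls are printed but the firefly/Renilla ratio behind them is not deposited; fold cut for lowering reported inconsistently.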 Raw values vary from plate to plate and are shown uncorrected. The numbers tell different reagents against one gene apart. Names joined by + are all predicted targets of the reagent. Not stated in the record: the amount of reagent.

no.	Target gene	dsRNA no.	firefly reporter light, replicate 1	firefly reporter light, replicate 2	Renilla control light, replicate 1	Renilla control light, replicate 2	outcome
1	Rpn13R	1	3.80e5	4.24e5	3.01e6	2.62e6	inactive
2	Rpn13R	2	1.43e6	1.24e6	1.07e6	1.13e6	inactive
3	Bug22	1	1.82e5	1.21e5	1.64e6	1.01e6	inactive
4	mRRF2	1	2.47e5	2.96e5	3.34e6	2.72e6	inactive
5	CG8788	1	3.67e5	2.67e5	2.16e6	1.65e6	inactive
6	Obp99c	1	80687	91955	1.08e6	1.69e6	inactive
7	CG14450	1	2.56e5	2.43e5	1.07e6	1.35e6	inactive
8	CG14450	2	6.26e5	5.47e5	9.18e5	9.18e5	inactive
9	CG17660	1	7.58e5	1.26e6	1.50e6	1.78e6	inactive
10	Polr2G	1	1.42e5	1.30e5	4.33e5	5.32e5	inactive
11	CG11504	1	1.22e5	65473	7.83e5	5.44e5	inactive
12	Cpr78Cc	1	3.17e5	2.42e5	1.73e6	1.74e6	inactive
13	Reph	1	8.54e5	7.86e5	3.69e6	2.84e6	inactive
14	Reph	2	9.72e5	1.08e6	2.59e6	2.35e6	inactive
15	Reph	3	5.36e5	5.84e5	1.23e6	1.23e6	inactive
16	mor	1	2.24e5	2.41e5	1.74e6	1.74e6	inactive
17	mor	2	7.01e5	5.05e5	1.54e6	1.21e6	inactive
18	Mdh2	1	34004	71829	7.85e5	1.25e6	inactive
19	CG31717	1	1.55e5	1.40e5	5.43e5	4.89e5	inactive
20	CG13488	1	1.18e5	2.70e5	1.22e6	1.55e6	inactive
21	CG10252	1	1.00e5	64618	4.66e5	3.26e5	inactive
22	oys	1	1.68e5	77152	1.43e5	1.17e5	inactive
23	oys	2	1.02e6	9.73e5	1.31e6	1.11e6	inactive
24	oys	3	4.27e5	4.71e5	6.26e5	4.97e5	inactive
25	CG44000 + CG33995 + CG44001	1	2.25e5	1.73e5	6.77e5	5.98e5	inactive
26	CG44000 + CG33995 + CG44001	2	7.03e5	8.03e5	2.16e6	2.50e6	inactive
27	CG12708	1	2.91e5	3.19e5	3.07e6	3.73e6	inactive
28	CG14861	1	1.37e5	1.32e5	2.12e6	2.09e6	inactive
29	kdn	1	2.15e5	1.81e5	1.96e6	2.19e6	inactive
30	CG6972	1	2.31e5	3.24e5	1.56e6	2.17e6	inactive
31	CG6972	2	5.07e5	4.46e5	1.81e6	1.81e6	inactive

Next part, starting with the last 7 of the part before.
no.	Target gene	dsRNA no.	firefly reporter light, replicate 1	firefly reporter light, replicate 2	Renilla control light, replicate 1	Renilla control light, replicate 2	outcome
25	CG44000 + CG33995 + CG44001	1	2.25e5	1.73e5	6.77e5	5.98e5	inactive
26	CG44000 + CG33995 + CG44001	2	7.03e5	8.03e5	2.16e6	2.50e6	inactive
27	CG12708	1	2.91e5	3.19e5	3.07e6	3.73e6	inactive
28	CG14861	1	1.37e5	1.32e5	2.12e6	2.09e6	inactive
29	kdn	1	2.15e5	1.81e5	1.96e6	2.19e6	inactive
30	CG6972	1	2.31e5	3.24e5	1.56e6	2.17e6	inactive
31	CG6972	2	5.07e5	4.46e5	1.81e6	1.81e6	inactive
32	Uch	1	1.05e6	7.86e5	5.35e6	2.43e6	inactive
33	sad	1	1.10e5	1.71e5	2.30e6	2.65e6	inactive
34	sad	2	2.36e5	4.47e5	4.42e5	1.19e6	inactive
35	CG7272	1	2.03e5	1.89e5	2.00e6	1.67e6	inactive
36	CG15136	1	1.41e5	1.40e5	1.58e6	1.41e6	inactive
37	east	1	4.20e5	4.23e5	2.38e6	2.53e6	inactive
38	east	2	6.71e5	5.99e5	4.70e5	4.16e5	inactive
39	Sidpn	1	7.30e5	8.49e5	2.17e6	2.59e6	inactive
40	CG3982	1	7.08e5	8.75e5	9.70e5	1.34e6	inactive
41	CG3982	2	3.38e5	2.64e5	9.12e5	9.97e5	inactive
42	CG4752	1	4.65e5	4.34e5	2.72e6	2.58e6	inactive
43	CG4752	2	2.91e5	2.74e5	4.92e5	5.09e5	inactive
44	CG33655	1	1.07e6	9.57e5	2.01e6	1.45e6	inactive
45	barr	1	1.31e5	1.12e5	1.01e6	5.46e5	inactive
46	TwdlZ	1	6.63e5	6.88e5	5.82e5	3.75e5	inactive
47	Or46a + asRNA:CR43467	1	3.57e5	2.69e5	2.58e6	2.41e6	inactive
48	Or46a + asRNA:CR43467	2	1.51e5	1.12e5	1.10e6	9.06e5	inactive
49	Or46a + asRNA:CR43467	3	4.78e5	4.85e5	2.58e6	2.66e6	inactive
50	Or46a + asRNA:CR43467	4	3.49e5	3.25e5	7.59e5	7.59e5	inactive
51	Drsl3	1	8.13e5	7.60e5	8.18e5	6.69e5	inactive
52	Drsl3	2	6.42e5	3.97e5	1.36e6	1.28e6	inactive
53	Drip	1	3.09e5	2.48e5	1.98e6	1.93e6	inactive
54	Su(var)3-7	1	33277	50376	6.76e5	1.08e6	inactive
55	CG17636	1	1.33e5	1.25e5	4.27e5	3.68e5	inactive
56	TORIP	1	24868	45508	4.04e5	4.12e5	inactive
57	Ugt49C1	1	2.24e5	2.65e5	1.66e6	1.60e6	inactive
58	Ugt49C1	2	2.42e5	2.42e5	7.24e5	7.21e5	inactive
